Assay: general procedure: Fmoc solid-phase peptide synthesis; Fmoc-hydroxylamine-2-Cl-Trt resin; HATU/HOAt/DIEA
Details: whole synthesis

D-Phe-Gln-Trp-Ala-Val-Gly-His-Leu-NHOH
final HPLC purity (analytical HPLC (Luna C18, 250 × 4.6 mm), UV 220 nm, scale of the general procedure 0.1 mmol): >99%
isolated yield (scale 0.1 mmol): 3.4%

Source: publication PMC11243334 (Molecules, 2024)
